# Substitutions are numbered along the chain they refer to. Names and notes keep the numbering of the source. These are yes or no findings as the source states them, for the method shown. Binding seen in cells or lysates may run through a third protein. Binding calls can cover weak binding; strength is not graded here. Sequences can lack the tags named with a protein.
# Amino acid sequences for entries named in this document (tags omitted). A change or cut given only in a name is not applied to a line headed by its entry.
# UniProt Q63372: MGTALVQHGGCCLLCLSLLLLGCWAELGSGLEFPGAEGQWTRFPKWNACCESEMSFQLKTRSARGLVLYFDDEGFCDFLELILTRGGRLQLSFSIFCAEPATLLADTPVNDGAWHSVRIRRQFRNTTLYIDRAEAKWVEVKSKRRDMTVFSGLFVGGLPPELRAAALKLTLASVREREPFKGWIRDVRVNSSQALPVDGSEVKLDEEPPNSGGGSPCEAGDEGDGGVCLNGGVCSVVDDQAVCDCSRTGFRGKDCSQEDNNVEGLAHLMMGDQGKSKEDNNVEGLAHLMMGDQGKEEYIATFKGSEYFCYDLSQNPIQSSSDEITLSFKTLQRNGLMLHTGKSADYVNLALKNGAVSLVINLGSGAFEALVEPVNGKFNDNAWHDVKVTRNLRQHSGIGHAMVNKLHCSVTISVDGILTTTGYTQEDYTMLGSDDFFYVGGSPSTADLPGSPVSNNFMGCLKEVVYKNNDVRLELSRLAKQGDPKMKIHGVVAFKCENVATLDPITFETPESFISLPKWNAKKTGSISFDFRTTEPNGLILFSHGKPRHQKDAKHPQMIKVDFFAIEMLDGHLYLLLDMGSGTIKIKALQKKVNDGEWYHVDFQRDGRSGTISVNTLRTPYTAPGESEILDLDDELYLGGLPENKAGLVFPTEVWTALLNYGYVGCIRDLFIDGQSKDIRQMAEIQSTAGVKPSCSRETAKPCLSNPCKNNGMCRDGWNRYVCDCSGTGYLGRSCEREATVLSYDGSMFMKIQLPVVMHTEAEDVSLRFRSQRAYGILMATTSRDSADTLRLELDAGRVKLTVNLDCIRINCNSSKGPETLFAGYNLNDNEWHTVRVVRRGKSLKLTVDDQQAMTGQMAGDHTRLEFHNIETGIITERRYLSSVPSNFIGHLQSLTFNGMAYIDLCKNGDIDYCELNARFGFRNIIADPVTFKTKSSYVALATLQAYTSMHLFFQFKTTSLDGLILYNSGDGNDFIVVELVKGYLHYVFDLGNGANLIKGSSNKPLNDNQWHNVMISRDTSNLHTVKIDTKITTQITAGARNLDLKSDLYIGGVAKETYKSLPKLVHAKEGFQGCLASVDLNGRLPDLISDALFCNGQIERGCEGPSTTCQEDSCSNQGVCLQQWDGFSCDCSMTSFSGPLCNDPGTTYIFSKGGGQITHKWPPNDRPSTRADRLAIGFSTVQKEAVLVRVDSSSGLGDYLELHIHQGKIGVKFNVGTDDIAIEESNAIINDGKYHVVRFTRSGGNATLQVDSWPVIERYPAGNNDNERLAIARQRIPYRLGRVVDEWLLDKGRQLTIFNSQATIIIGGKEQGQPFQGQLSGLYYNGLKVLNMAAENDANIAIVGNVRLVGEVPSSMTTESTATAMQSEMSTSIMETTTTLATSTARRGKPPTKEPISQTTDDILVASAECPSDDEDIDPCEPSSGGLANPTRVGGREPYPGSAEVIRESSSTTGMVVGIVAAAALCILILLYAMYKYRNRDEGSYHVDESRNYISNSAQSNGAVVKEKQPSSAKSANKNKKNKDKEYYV
# B1: GFP-tagged Mint2 wild type (rat) (protein, UniProt O35431 1-750)
# chain: MAHRKRQSTASSMLDHRARPGPIPHDQEPENEDTELPLESYVPTGLELGTLRPDSPTPEEQECHNHSPDGDSSSDYVNNTSEEEDYDEGLPEEEEGVTYYIRYCPEDDSYLEGMDCNGEEYLAHGAHPVDTDECQEAVEDWTDSVGPHTHSHGAENSQEYPDSHLPIPEDDPTVLEVHDQEEDGHYCPSKESYQDYYPPETNGNTGGASPYRMRRGDGDLEEQEEDIDQIVAEIKMSLSMTSITSASEASPEHMPELDPGDSTEACSPSDTGRGPSRQEARPKSLNLPPEVKHSGDPQRGLKTKTRTPEERPKWPQEQVCNGLEQPRKQQRSDLNGPTDNNNIPETKKVASFPSFVAVPGPCEPEDLIDGIIFAANYLGSTQLLSERNPSKNIRMMQAQEAVSRVKRMQKAAKIKKKANSEGDAQTLTEVDLFISTQRIKVLNADTQETMMDHALRTISYIADIGNIVVLMARRRMPRSASQDCIETTPGAQEGKKQYKMICHVFESEDAQLIAQSIGQAFSVAYQEFLRANGINPEDLSQKEYSDIINTQEMYNDDLIHFSNSENCKELQLEKHKGEILGVVVVESGWGSILPTVILANMMNGGPAARSGKLSIGDQIMSINGTSLVGLPLATCQGIIKGLKNQTQVKLNIVSCPPVTTVLIKRPDLKYQLGFSVQNGIICSLMRGGIAERGGVRVGHRIIEINGQSVVATAHEKIVQALSNSVGEIHMKTMPAAMFRLLTGQETPLYI
# B2: GFP-tagged Mint2 N723S (rat) (protein, UniProt O35431 1-750)
# chain: B1 chain with N723S
# Target: GST-Nrxn1α fusion protein (cytosolic domain of neurexin-1α) (UniProt Q63372)
# Test: pull-down; GST-Nrxn1α cytosolic domain immobilized on glutathione sepharose beads; HEK293T lysates with GFP-tagged Mint2 in 50 mM Tris-HCl pH 7.2, 1 mM EDTA, 150 mM NaCl, 1% NP-40; 2 h at 4 °C; Western blot, quantified as percent of Mint2 WT; only the target purified
row,Binder,binding
1,B1,binds
2,B2,binds

# From article PMC6465354
